# PubChem BioAssay AID1259308, NCATS – 2017
# Purpose: 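Candidate targets for better recombinant protein yield in mammalian cells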 (primary screen)
# Cell system: human HEK293 embryonic kidney cells stably expressing firefly luciferase (HEK-CMV-Luc2-Hygro)
# Reagent: single siRNA against human genes, 0.8 pmol siRNA per well
# Timing: 72 h
# Detection: 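Luciferase light (ONE-Glo) measured on one replicate plate set and viability (CellTiter-Glo) on the other, scaled to a negative control siRNA, with robust z-scores and luciferase per cell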
# Direction: total luciferase, z-score and total luciferase, % of control: higher = more reporter protein produced; luciferase per cell, z-score: higher = more reporter output per viable cell
# Active means: 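An siRNA counts as active if its total luciferase robust z-score exceeds 3; genes with two or more such siRNAs out of three were retested with fresh siRNAs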
# Calls: active = raised luciferase; inactive = no rise
# Here is a random part of about 59,000 reagents. About 1,510 of them (2.6%) count as active. 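Calls use total luciferase alone and ignore viability, so some active siRNAs may act by altering cell number.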 The numbers tell different reagents against one gene apart. Further read-outs or replicates are left out here.
The opening 6 entries, to show the layout:
gene knocked down,reagent,"total luciferase, z-score","total luciferase, % of control","luciferase per cell, z-score",call
WT1 (WT1 transcription factor),1,-0.829,65.4,-0.768,inactive
WT1 (WT1 transcription factor),2,0.461,91.1,0.156,inactive
WT1 (WT1 transcription factor),3,0.363,89.1,-0.204,inactive
PIEZO1,1,0.221,86.3,2.92,inactive
PIEZO1,2,-1.87,44.8,-0.768,inactive
PIEZO1,3,-1.45,53,-1.68,inactive

The listing, from the first entry:
gene knocked down,reagent,"total luciferase, z-score","total luciferase, % of control","luciferase per cell, z-score",call
WT1 (WT1 transcription factor),1,-0.829,65.4,-0.768,inactive
WT1 (WT1 transcription factor),2,0.461,91.1,0.156,inactive
WT1 (WT1 transcription factor),3,0.363,89.1,-0.204,inactive
PIEZO1,1,0.221,86.3,2.92,inactive
PIEZO1,2,-1.87,44.8,-0.768,inactive
PIEZO1,3,-1.45,53,-1.68,inactive
LOC643936 (retired record),1,-0.0721,80.5,0.158,inactive
LOC643936 (retired record),2,0.982,101,2.48,inactive
LOC643936 (retired record),3,-1.96,42.9,-1.78,inactive
KATNB1 (katanin regulatory subunit B1),1,-1.13,59.5,-0.689,inactive
KATNB1 (katanin regulatory subunit B1),2,2.42,130,2.22,inactive
KATNB1 (katanin regulatory subunit B1),3,1.36,109,1.76,inactive
PPME1 (protein phosphatase methylesterase 1),1,0.27,87.3,0.234,inactive
PPME1 (protein phosphatase methylesterase 1),2,-0.262,76.7,-0.471,inactive
PPME1 (protein phosphatase methylesterase 1),3,1.71,116,1.67,inactive
HMGB3P27 (high mobility group box 3 pseudogene 27),1,0.415,90.1,0.434,inactive
HMGB3P27 (high mobility group box 3 pseudogene 27),2,2.2,126,2.21,inactive
HMGB3P27 (high mobility group box 3 pseudogene 27),3,-0.188,78.1,1.46,inactive
PKD2L2,1,-1.89,44.2,-1.82,inactive
PKD2L2,2,-1.28,56.4,-1.08,inactive
PKD2L2,3,-0.325,75.4,-0.556,inactive
CCL18 (C-C motif chemokine ligand 18),1,-0.576,70.4,-0.528,inactive
CCL18 (C-C motif chemokine ligand 18),2,-0.494,72.1,-0.806,inactive
CCL18 (C-C motif chemokine ligand 18),3,1.51,112,0.464,inactive
MRTFB (myocardin related transcription factor B),1,-0.519,71.6,-0.127,inactive
MRTFB (myocardin related transcription factor B),2,-1.47,52.7,-1.37,inactive
MRTFB (myocardin related transcription factor B),3,7.7,235,5.53,active
KRTAP3-2 (keratin associated protein 3-2),1,0.0341,82.6,-0.817,inactive
KRTAP3-2 (keratin associated protein 3-2),2,2.31,128,0.898,inactive
KRTAP3-2 (keratin associated protein 3-2),3,-0.484,72.3,-0.264,inactive
METTL27 (methyltransferase like 27),1,1.15,105,1.75,inactive
METTL27 (methyltransferase like 27),2,0.145,84.8,-0.294,inactive
METTL27 (methyltransferase like 27),3,-1.19,58.3,-1.31,inactive
RHOBTB3 (Rho related BTB domain containing 3),1,-0.912,63.7,-1.49,inactive
RHOBTB3 (Rho related BTB domain containing 3),2,0.304,87.9,0.312,inactive
RHOBTB3 (Rho related BTB domain containing 3),3,0.414,90.1,0.992,inactive
PLSCR1 (phospholipid scramblase 1),1,0.241,86.7,0.12,inactive
PLSCR1 (phospholipid scramblase 1),2,-1,61.9,-1.22,inactive
PLSCR1 (phospholipid scramblase 1),3,-0.0248,81.4,-0.478,inactive
"NPRL2 (NPR2 like, GATOR1 complex subunit)",1,0.276,87.4,0.0205,inactive
"NPRL2 (NPR2 like, GATOR1 complex subunit)",2,-1.31,55.8,-1.2,inactive
"NPRL2 (NPR2 like, GATOR1 complex subunit)",3,2.2,126,3.76,inactive
PNISR (PNN interacting serine and arginine rich protein),1,-0.19,78.1,-0.108,inactive
PNISR (PNN interacting serine and arginine rich protein),2,-1.17,58.7,-1.19,inactive
PNISR (PNN interacting serine and arginine rich protein),3,0.0819,83.5,-0.165,inactive
PADI4 (peptidyl arginine deiminase 4),1,-0.434,73.3,-0.29,inactive
PADI4 (peptidyl arginine deiminase 4),2,-0.343,75.1,-0.789,inactive
PADI4 (peptidyl arginine deiminase 4),3,0.322,88.3,-0.272,inactive
UROS (uroporphyrinogen III synthase),1,-0.405,73.8,-0.818,inactive
UROS (uroporphyrinogen III synthase),2,1.25,107,1.1,inactive
UROS (uroporphyrinogen III synthase),3,0.428,90.4,0.299,inactive
PHF5A (PHD finger protein 5A),1,1.49,111,2.22,inactive
PHF5A (PHD finger protein 5A),2,5.01,181,3.95,active
PHF5A (PHD finger protein 5A),3,0.921,100,2.27,inactive
TJAP1 (tight junction associated protein 1),1,-0.366,74.6,-0.444,inactive
TJAP1 (tight junction associated protein 1),2,-0.747,67,0.392,inactive
TJAP1 (tight junction associated protein 1),3,-0.227,77.4,-0.841,inactive
